From the supplement of paper PMC4604168 (melanoma cell lines)
This is one part of the list. Many values rest on one well or one pass, so single values are uncertain.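 Cells were imaged in 1,536-well plates, and nuclei stained with an antibody against cleaved PARP were counted against all DNA-stained nuclei to give the apoptosis fraction. Screening doses were chosen to leave most cells alive, and resting and induced cleaved-PARP levels differ strongly between cell lines.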

system: 501Mel; experiment: cleaved PARP positive nuclei fraction relative to DMSO control; melanoma cells; higher = more apoptosis; conditions: library dose: low library concentration; 72 h

SMILES | cleaved PARP positive nuclei fraction
N#CC[C@H](C1CCCC1)n1cc(-c2ncnc3[nH]ccc23)cn1 [ruxolitinib] + O=S(=O)(c1ccccc1)N(CC(F)(F)F)c1ccc(C(O)(C(F)(F)F)C(F)(F)F)cc1 [T0901317] (first compound 1 µM, partner dose 1.4 µM) | 125%
Cc1cn(-c2cc(NC(=O)c3ccc(C)c(Nc4nccc(-c5cccnc5)n4)c3)cc(C(F)(F)F)c2)cn1 [nilotinib] + COC(=O)c1sccc1S(=O)(=O)Nc1ccc(Nc2ccccc2)cc1OC [GSK0660] (first compound 0.2 µM, partner dose 1 µM) | 51.6%
Cc1ccc(Nc2nccc(N(C)c3ccc4c(C)n(C)nc4c3)n2)cc1S(N)(=O)=O [Pazopanib] + O=C(O)C(=O)Nc1sc2c(c1C(=O)O)CCNC2 [TCS401] (first compound 0.4 µM, partner dose 1.66667 µM) | 58.3%
N#CC[C@H](C1CCCC1)n1cc(-c2ncnc3[nH]ccc23)cn1 [ruxolitinib] + COc1ccc(COc2ccc(Cc3cnc(N)nc3N)cc2OC)cc1 [GW2580] (first compound 1 µM, partner dose 1 µM) | 176%
Cc1ccc(Nc2nccc(N(C)c3ccc4c(C)n(C)nc4c3)n2)cc1S(N)(=O)=O [Pazopanib] + CCc1ccc(CCOc2ccc(CC3SC(=O)NC3=O)cc2)nc1 [pioglitazone] (first compound 0.4 µM, partner dose 2 µM) | 139%
Cc1cc(Nc2cc(N3CCN(C)CC3)nc(Sc3ccc(NC(=O)C4CC4)cc3)n2)n[nH]1 [Tozasertib] + c1cc(-c2cnn3cc(-c4ccc(OCCN5CCCCC5)cc4)cnc23)ccn1 [Dorsomorphin] (first compound 0.006 µM, partner dose 0.4 µM) | 76.6%
Cc1ccc(Nc2nccc(N(C)c3ccc4c(C)n(C)nc4c3)n2)cc1S(N)(=O)=O [Pazopanib] + COC(=O)c1sccc1S(=O)(=O)Nc1ccc(Nc2ccccc2)cc1OC [GSK0660] (first compound 0.4 µM, partner dose 1 µM) | 38%
COc1cc([C@@H]2c3cc4c(cc3[C@@H](O[C@@H]3O[C@@H]5CO[C@@H](C)O[C@H]5[C@H](O)[C@H]3O)[C@H]3COC(=O)[C@H]23)OCO4)cc(OC)c1O [etoposide] + O=S(=O)(c1ccccc1)N(CC(F)(F)F)c1ccc(C(O)(C(F)(F)F)C(F)(F)F)cc1 [T0901317] (first compound 0.02 µM, partner dose 1.4 µM) | 71.3%
O=c1[nH]nc(Sc2ncc([N+](=O)[O-])s2)n1-c1ccc2c(c1)OCCO2 + c1cc(-c2cnn3cc(-c4ccc(OCCN5CCCCC5)cc4)cnc23)ccn1 [Dorsomorphin] (first compound 0.2 µM, partner dose 0.4 µM) | 74.9%
Cc1cc(Nc2cc(N3CCN(C)CC3)nc(Sc3ccc(NC(=O)C4CC4)cc3)n2)n[nH]1 [Tozasertib] + Oc1cc(-c2nc(-c3ccccc3)[nH]c2-c2ccncc2)ccc1Cl [L779450] (first compound 0.006 µM, partner dose 0.2 µM) | 39.3%
Cc1cc(Nc2cc(N3CCN(C)CC3)nc(Sc3ccc(NC(=O)C4CC4)cc3)n2)n[nH]1 [Tozasertib] + Cn1cc(/C=C2\C(=O)Nc3cccnc32)c2ccccc21 [GW441756] (first compound 0.006 µM, partner dose 0.4 µM) | 66%
Cc1cn(-c2cc(NC(=O)c3ccc(C)c(Nc4nccc(-c5cccnc5)n4)c3)cc(C(F)(F)F)c2)cn1 [nilotinib] + O=C(O)C(=O)Nc1sc2c(c1C(=O)O)CCNC2 [TCS401] (first compound 0.2 µM, partner dose 1.66667 µM) | 54.2%
Cc1cn(-c2cc(NC(=O)c3ccc(C)c(Nc4nccc(-c5cccnc5)n4)c3)cc(C(F)(F)F)c2)cn1 [nilotinib] + O=S(=O)(c1ccccc1)N(CC(F)(F)F)c1ccc(C(O)(C(F)(F)F)C(F)(F)F)cc1 [T0901317] (first compound 0.2 µM, partner dose 1.4 µM) | 93.2%
COc1cc([C@@H]2c3cc4c(cc3[C@@H](O[C@@H]3O[C@@H]5CO[C@@H](C)O[C@H]5[C@H](O)[C@H]3O)[C@H]3COC(=O)[C@H]23)OCO4)cc(OC)c1O [etoposide] + Cc1cc([N+](=O)[O-])ccc1NS(=O)(=O)c1cc(Cl)ccc1Cl [FH535] (first compound 0.02 µM, partner dose 1 µM) | 192%
N#CC[C@H](C1CCCC1)n1cc(-c2ncnc3[nH]ccc23)cn1 [ruxolitinib] + N#Cc1c(O)c2c(-c3ccc(-c4ccccc4O)cc3)csc2[nH]c1=O [A769662] (first compound 1 µM, partner dose 2 µM) | 68.7%
COc1cc([C@@H]2c3cc4c(cc3[C@@H](O[C@@H]3O[C@@H]5CO[C@@H](C)O[C@H]5[C@H](O)[C@H]3O)[C@H]3COC(=O)[C@H]23)OCO4)cc(OC)c1O [etoposide] + O=C1NC(=O)/C(=C/c2ccc(-c3ccc(F)cc3O)o2)S1 [AS252424] (first compound 0.02 µM, partner dose 1 µM) | 73.2%
COc1cc([C@@H]2c3cc4c(cc3[C@@H](O[C@@H]3O[C@@H]5CO[C@@H](C)O[C@H]5[C@H](O)[C@H]3O)[C@H]3COC(=O)[C@H]23)OCO4)cc(OC)c1O [etoposide] + CC(C)CCN1c2nc(Nc3cc(F)c(O)c(F)c3)ncc2N(C)C(=O)C1C [BID1870] (first compound 0.02 µM, partner dose 0.2 µM) | 68.5%
Cc1ccc(Nc2nccc(N(C)c3ccc4c(C)n(C)nc4c3)n2)cc1S(N)(=O)=O [Pazopanib] + CCN(CC)CCCCNc1ncc2cc(-c3cc(OC)cc(OC)c3)c(NC(=O)NC(C)(C)C)nc2n1 [PD173074] (first compound 0.4 µM, partner dose 0.1 µM) | 70.1%
Cc1cn(-c2cc(NC(=O)c3ccc(C)c(Nc4nccc(-c5cccnc5)n4)c3)cc(C(F)(F)F)c2)cn1 [nilotinib] + COc1ccc2c(c1)CCC1C2CCC2(C)C(NCCCCCCN3C(=O)C=CC3=O)CCC12 [U73122] (first compound 0.2 µM, partner dose 0.4 µM) | 76.2%
N#CC[C@H](C1CCCC1)n1cc(-c2ncnc3[nH]ccc23)cn1 [ruxolitinib] + COc1ccc2c(c1)CCC1C2CCC2(C)C(NCCCCCCN3C(=O)C=CC3=O)CCC12 [U73122] (first compound 1 µM, partner dose 0.4 µM) | 67.8%
CCCCCCCCCCCCCCCCCCOP(=O)([O-])OC1CC[N+](C)(C)CC1 [Perifosine] + O=C(O)C(=O)Nc1sc2c(c1C(=O)O)CCNC2 [TCS401] (first compound 0.4 µM, partner dose 1.66667 µM) | 72.9%
Cc1cn(-c2cc(NC(=O)c3ccc(C)c(Nc4nccc(-c5cccnc5)n4)c3)cc(C(F)(F)F)c2)cn1 [nilotinib] + COc1cc(N2CCC(N3CCN(C)CC3)CC2)ccc1Nc1ncc(Cl)c(Nc2ccccc2S(=O)(=O)C(C)C)n1 [NVP-TAE684] (first compound 0.2 µM, partner dose 0.08 µM) | 132%
Cc1ccc(Nc2nccc(N(C)c3ccc4c(C)n(C)nc4c3)n2)cc1S(N)(=O)=O [Pazopanib] + O=C(Nc1ccccc1)c1cc([N+](=O)[O-])ccc1Cl [GW9662] (first compound 0.4 µM, partner dose 2 µM) | 152%
O=C(Nc1cc(C(F)(F)F)cc(C(F)(F)F)c1)c1cc(Cl)ccc1O + O=C(O)C(=O)Nc1sc2c(c1C(=O)O)CCNC2 [TCS401] (first compound 0.016 µM, partner dose 1.66667 µM) | 66.6%

Some values from the results shown.
N#CC[C@H](C1CCCC1)n1cc(-c2ncnc3[nH]ccc23)cn1 [ruxolitinib] + COc1ccc2c(c1)CCC1C2CCC2(C)C(NCCCCCCN3C(=O)C=CC3=O)CCC12 [U73122] (first compound 1 µM, partner dose 0.4 µM) – cleaved PARP positive nuclei fraction: 67.8%
Cc1cc(Nc2cc(N3CCN(C)CC3)nc(Sc3ccc(NC(=O)C4CC4)cc3)n2)n[nH]1 [Tozasertib] + c1cc(-c2cnn3cc(-c4ccc(OCCN5CCCCC5)cc4)cnc23)ccn1 [Dorsomorphin] (first compound 0.006 µM, partner dose 0.4 µM) – cleaved PARP positive nuclei fraction: 76.6%
